Measured values published in article PMC3524233.
No constants are given. Whether binding was seen depends on the method and setting. In cells and extracts the contact can be indirect. Some entries that bind do so weakly or less than the wild type. Tags and fused reporters may be left off the sequences shown.

Columns and labels:
[1] = biological target: GFPs10 tagged p65, Q04206; experiment: split reporter; tripartite split GFP complementation in the cell: GFPs10- and GFPs11-tagged NF-κB proteins co-transfected with the detector GFPs1-9 in CHO-CD14 cells; fluorescence microscopy after overnight incubation; conditions: remark: other sources report otherwise
[2] = biological target: T1, GFPs11 tagged IκBα, P25963; experiment: as above; conditions: remark: other sources report otherwise
T1 chain: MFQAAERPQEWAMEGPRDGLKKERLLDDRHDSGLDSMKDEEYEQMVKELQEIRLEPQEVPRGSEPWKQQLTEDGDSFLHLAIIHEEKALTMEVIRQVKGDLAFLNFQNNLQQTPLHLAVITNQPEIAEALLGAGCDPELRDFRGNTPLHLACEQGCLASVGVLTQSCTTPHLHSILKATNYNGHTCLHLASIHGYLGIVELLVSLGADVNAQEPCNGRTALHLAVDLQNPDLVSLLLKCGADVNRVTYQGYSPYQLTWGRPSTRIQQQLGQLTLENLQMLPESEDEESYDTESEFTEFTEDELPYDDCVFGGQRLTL

binding [1]: binds | binding [2]: no binding
B1: GFPs11 tagged IκBα, P25963 1-317 (protein)
chain: MFQAAERPQEWAMEGPRDGLKKERLLDDRHDSGLDSMKDEEYEQMVKELQEIRLEPQEVPRGSEPWKQQLTEDGDSFLHLAIIHEEKALTMEVIRQVKGDLAFLNFQNNLQQTPLHLAVITNQPEIAEALLGAGCDPELRDFRGNTPLHLACEQGCLASVGVLTQSCTTPHLHSILKATNYNGHTCLHLASIHGYLGIVELLVSLGADVNAQEPCNGRTALHLAVDLQNPDLVSLLLKCGADVNRVTYQGYSPYQLTWGRPSTRIQQQLGQLTLENLQMLPESEDEESYDTESEFTEFTEDELPYDDCVFGGQRLTL
